Experimental data: the supplement of paper PMC6411743
± gives the standard deviation of the averaged measurements. Only a part is listed here, and it is no random draw. Most entries show no effect beyond the scatter of the controls.

Target: UniProt P07900 and related entries
Assay: NP40-soluble protein abundance relative to vehicle (solubility fold change) (ratio); higher = more soluble protein in presence of ATP
Procedure, shortened: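 Eight concentrations, 0.1 to 10 mM, were tested on Jurkat crude lysate for 10 min at room temperature and then 3 min at 37 °C, in three independent experiments. The lysate was solubilised with 0.8% NP40 and benzonase, ultracentrifuged, and the supernatant TMT-labelled for LC-MS/MS. Each value is the fold change against the detergent-processed vehicle in its own replicate, from vsn-normalised intensities.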

Q: How did the NP40-soluble protein abundance (concentration: 0.1mM) turn out when `Nc1ncnc2c1ncn2[C@@H]1O[C@H](COP(=O)(O)OP(=O)(O)OP(=O)(O)O)[C@@H](O)[C@H]1O` [adenosine triphosphate] was run?
A: 1.01 ± 0.026

Q: And the NP40-soluble protein abundance (concentration: 0.5mM)?
A: 1.01 ± 0.014
